These are yes or no findings as the source states them, for the method shown. Some results given as binding are weak or reduced against the parent protein; the word gives no strength.
Experiments:
[1] = molecular target: T1, endogenous IL-33 in human serum (human) (UniProt O95760); assay: ECL sandwich immunoassay (C-AD, acid treated) on human serum; excess rhST2 added with detection reagent
T1 sequence (looked up): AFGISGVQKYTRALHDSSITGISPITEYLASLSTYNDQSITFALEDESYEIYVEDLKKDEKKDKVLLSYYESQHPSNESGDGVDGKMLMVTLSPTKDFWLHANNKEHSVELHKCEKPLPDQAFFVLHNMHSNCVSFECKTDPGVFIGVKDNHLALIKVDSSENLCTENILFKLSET

By UniProt entry, the sequences of proteins in these tests, tags left out. Where a name states a change or a piece, a line headed by the entry shows the natural chain unless it says otherwise. Chains listed by the source or under a name are the forms on record and can include a tag or linker.
recombinant human ST2 (Q01638, form named): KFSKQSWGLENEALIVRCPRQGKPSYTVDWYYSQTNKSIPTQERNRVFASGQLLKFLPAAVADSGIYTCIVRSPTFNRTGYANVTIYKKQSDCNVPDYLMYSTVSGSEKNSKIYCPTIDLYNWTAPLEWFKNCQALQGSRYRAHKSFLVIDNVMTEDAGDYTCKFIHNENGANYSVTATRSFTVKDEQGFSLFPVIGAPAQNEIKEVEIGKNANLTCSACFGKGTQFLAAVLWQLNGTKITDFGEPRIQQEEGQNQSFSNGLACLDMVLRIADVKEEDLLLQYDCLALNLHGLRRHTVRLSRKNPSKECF

[2] = molecular target: T2, recombinant human IL-33 (human) (UniProt O95760); assay: ECL sandwich immunoassay; recombinant IL-33 at 36 pg/mL with increasing recombinant soluble ST2; interference with detection
T2 sequence (looked up): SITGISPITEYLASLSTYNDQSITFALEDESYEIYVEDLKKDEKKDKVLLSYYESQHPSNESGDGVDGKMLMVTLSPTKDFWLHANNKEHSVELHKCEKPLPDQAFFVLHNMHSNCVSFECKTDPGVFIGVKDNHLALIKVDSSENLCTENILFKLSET

- binding [1]: binds
- binding [2]: binds
Substance: recombinant human ST2 (from UniProt Q01638 19-328) (receptor)
